Results: article PMC5381194, “On-chip in vitro cell-network pre-clinical cardiac toxicity using spatiotemporal human cardiomyocyte measurement on a chip” (Scientific Reports, 2014)

Amino acid sequences for entries named in this document (tags omitted). A change or cut given only in a name is not applied to a line headed by its entry.
UniProt Q12809: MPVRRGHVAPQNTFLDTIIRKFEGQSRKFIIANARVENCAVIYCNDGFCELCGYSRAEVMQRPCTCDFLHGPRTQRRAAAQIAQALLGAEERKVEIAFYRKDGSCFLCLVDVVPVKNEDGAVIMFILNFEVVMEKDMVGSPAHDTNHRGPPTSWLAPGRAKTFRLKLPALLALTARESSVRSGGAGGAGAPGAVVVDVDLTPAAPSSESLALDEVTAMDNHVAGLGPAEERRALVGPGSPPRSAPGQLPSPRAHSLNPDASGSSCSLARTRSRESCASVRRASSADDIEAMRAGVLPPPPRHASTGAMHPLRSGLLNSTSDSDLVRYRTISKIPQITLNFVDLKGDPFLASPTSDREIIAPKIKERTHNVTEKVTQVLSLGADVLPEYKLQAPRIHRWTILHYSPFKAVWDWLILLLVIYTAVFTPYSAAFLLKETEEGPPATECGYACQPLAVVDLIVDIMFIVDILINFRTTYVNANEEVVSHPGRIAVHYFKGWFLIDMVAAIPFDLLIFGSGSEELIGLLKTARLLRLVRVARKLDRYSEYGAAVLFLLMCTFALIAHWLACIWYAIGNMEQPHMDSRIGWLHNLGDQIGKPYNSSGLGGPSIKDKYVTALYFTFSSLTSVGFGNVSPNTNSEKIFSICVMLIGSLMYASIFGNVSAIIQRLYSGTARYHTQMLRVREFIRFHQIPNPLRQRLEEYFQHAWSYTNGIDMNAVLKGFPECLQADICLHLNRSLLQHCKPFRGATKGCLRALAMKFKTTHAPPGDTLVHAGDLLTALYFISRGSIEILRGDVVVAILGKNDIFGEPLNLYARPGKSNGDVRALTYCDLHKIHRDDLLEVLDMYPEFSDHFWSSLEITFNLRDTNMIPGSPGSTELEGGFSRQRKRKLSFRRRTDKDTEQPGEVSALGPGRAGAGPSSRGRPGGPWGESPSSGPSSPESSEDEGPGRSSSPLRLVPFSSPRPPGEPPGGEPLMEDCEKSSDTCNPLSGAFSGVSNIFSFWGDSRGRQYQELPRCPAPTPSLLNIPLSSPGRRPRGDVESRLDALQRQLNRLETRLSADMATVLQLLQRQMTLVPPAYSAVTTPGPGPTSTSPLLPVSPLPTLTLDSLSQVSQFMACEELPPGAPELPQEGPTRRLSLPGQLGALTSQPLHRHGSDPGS

Legend:
[1] = target: hERG (Homo sapiens, UniProt Q12809); settings: ref references and pharmaceutical attachments; cited from earlier work
[2] = system: human embryonic stem cell-derived cardiomyocyte cluster (hES-CMC); test: On-chip MEA field potential recording of hCM clusters (temporal FPD and STVFPD); settings: 1 μM (Ref. dose ca. 10^2 × CMAX), ratio against the control, mean ± S.E.

CC(C)(C)c1ccc(C(=O)CCCN2CCC(OC(c3ccccc3)c3ccccc3)CC2)cc1 [Ebastine]
hERG inhibition (positive or negative risk) [1]: (+)
FPD (ratio) [2]: 1.07 ± 0.03 ratio
STVFPD (ratio) [2]: 1.64 ± 0.28 ratio
